According to patent US20070274928A1, “Novel Cyclic Oxygenated Compounds Having Cooling, Fragrance, and Flavor Properties, and Uses Thereof” (priority 2003, published 2007):

Assay: Odor and taste evaluation
Set-up: species or system human
Details: pure / purified compound

Compound | odor / scent
CC(C)=CC1C(=O)C=C(C)C1(C)C (centres unmarked) [(10)] | very agreeable berry-like, raspberry-like odor and taste
CC1CC2(C)OC(=O)CC2C1(C)C (centres unmarked) [(129)] | pleasant fruity-woody-coconut odor of moderate to weak strength
CC1(C)CC2C(=O)CC(C)(O1)C2(C)C (centres unmarked) [(147)] | characteristic woody-camphoraceous odor
CC1=C[C@]2(C)OC(=O)CC2C1(C)C (some centres unmarked) [compound (6)] | very agreeable and pleasant woody, mahogany-like, tobacco like, somewhat fruity odor
CC1=CC2(O)OC(C)(C)CC2C1(C)C (centres unmarked) [compound (7)] | very weak menthol-like scent
CC1=CC(=O)C(CC(C)(C)O)C1(C)C (centres unmarked) [compound (8)] | practically odorless
CC1=CC(C)(O)C(CC(C)(C)O)C1(C)C (centres unmarked) [compound (9)] | practically odorless and tasteless
CC1=CC2(C)OC(C)(C)CC2C1(C)C (centres unmarked) [compound (11)] | characteristic woody-ambery agreeable odor
CC1CC2(O)OC(C)(C)CC2C1(C)C (centres unmarked) [compound (15)] | potent menthol-like, woody odor
CC1CC(=O)C(CC(C)(C)O)C1(C)C (centres unmarked) [compound (16)] | practically odorless
sodium ketocampholenate monohydrate | virtually odorless
